The results in this text go back to paper PMC12209456, “Serine/threonine/tyrosine kinase 1 drives pancreatic carcinogenesis via GSK3β sequestration-mediated Wnt/β-catenin pathway hyperactivation” (Signal Transduction and Targeted Therapy, 2025).

By UniProt entry, the sequences of proteins in these tests, tags left out.
UniProt Q96CW1: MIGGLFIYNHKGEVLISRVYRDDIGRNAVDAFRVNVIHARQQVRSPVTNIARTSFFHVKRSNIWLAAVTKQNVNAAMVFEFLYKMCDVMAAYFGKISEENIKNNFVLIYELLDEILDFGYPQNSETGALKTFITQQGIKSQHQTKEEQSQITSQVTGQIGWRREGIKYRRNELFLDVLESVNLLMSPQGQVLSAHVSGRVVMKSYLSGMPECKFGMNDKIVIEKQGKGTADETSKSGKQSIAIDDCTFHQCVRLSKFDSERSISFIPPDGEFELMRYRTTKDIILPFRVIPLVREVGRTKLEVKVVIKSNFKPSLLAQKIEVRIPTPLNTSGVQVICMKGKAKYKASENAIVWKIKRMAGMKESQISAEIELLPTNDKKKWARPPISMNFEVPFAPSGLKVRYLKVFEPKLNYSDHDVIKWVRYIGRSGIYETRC

What all share (test): co-IP; Flag-tagged AP1/2 μ subunits with HA-tagged STYK1 wild type or SS1, SS2, SS3 mutants
The target of assay [1] is T1, HA-tagged wild-type STYK1 (UniProt Q6J9G0).
T1 sequence: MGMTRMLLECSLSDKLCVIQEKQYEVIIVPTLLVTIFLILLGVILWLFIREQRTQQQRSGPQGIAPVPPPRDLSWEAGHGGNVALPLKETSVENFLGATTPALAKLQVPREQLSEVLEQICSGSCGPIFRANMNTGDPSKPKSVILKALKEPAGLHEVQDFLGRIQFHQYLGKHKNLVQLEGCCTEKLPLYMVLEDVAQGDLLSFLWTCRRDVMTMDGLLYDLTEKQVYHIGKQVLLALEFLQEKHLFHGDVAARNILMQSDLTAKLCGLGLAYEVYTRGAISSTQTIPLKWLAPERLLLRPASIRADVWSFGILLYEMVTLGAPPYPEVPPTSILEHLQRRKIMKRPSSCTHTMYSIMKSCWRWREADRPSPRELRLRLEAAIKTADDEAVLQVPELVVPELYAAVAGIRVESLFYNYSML

Assay [2] addresses T2, HA-tagged STYK1 SS1 mutant (Y191/L194 mutated to alanine) (UniProt Q6J9G0).
T2 sequence: T1 sequence with Y191A, L194A

Assay [3] has as its target HA-tagged STYK1 SS2 mutant (L203/L204 mutated to alanine) (UniProt Q6J9G0).
For assay [4], the target named is HA-tagged STYK1 SS3 mutant (L199/L220 mutated to alanine) (UniProt Q6J9G0).

Positions count from the first letter of the chain named. Results are given in words; binding and its absence hold for the method and conditions named. Binding seen in cells or lysates may run through a third protein. For some of these results: A result given as binding can be weak or reduced; the word gives no strength. For some of these results: Tags and fused reporters may be left off the sequences shown.

In the case of Flag-tagged AP1 μ subunit, the binding result in assay [1] was “binds”; in assay [2] it was “no binding”.
“Flag-tagged AP2 μ subunit (from UniProt Q96CW1 1-435)”: the binding result in assay [3] is on record as “no binding”; in assay [4] it was “binds”.
